The values that follow come from patent publication US5853984, “Use of nucleic acid ligands in flow cytometry” (NeXstar Pharmaceuticals, Inc.).

For data set [1], the target named is T1, Human neutrophil elastase (HNE) (Homo sapiens) (UniProt P08246).
T1 sequence (looked up, limits assumed): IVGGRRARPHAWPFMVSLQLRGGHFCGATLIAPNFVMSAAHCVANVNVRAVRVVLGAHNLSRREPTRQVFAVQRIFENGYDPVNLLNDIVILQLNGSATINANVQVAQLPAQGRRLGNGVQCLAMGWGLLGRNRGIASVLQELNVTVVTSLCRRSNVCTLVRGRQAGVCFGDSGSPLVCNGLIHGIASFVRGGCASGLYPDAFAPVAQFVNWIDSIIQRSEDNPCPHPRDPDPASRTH
Nature of the data set: flow cytometry. The following applies: purified native protein, single-stranded DNA, letters built from the parent sequence and the stated change, variant of PARENT (45-nt HNE DNA ligand). In general terms: A flow cytometer gives signals particle by particle.

In data set [2] the target is T1, Human neutrophil elastase (HNE) (Homo sapiens). Nature of the data set: filter binding. The settings on record: 150 mM NaCl, 100 mM Tris-HCl pH 7.0, 2 mM MgCl2, 6 mM KCl, 0.02% HSA, 37 C, purified native protein, single-stranded DNA, letters built from the parent sequence and the stated change, variant of PARENT (45-nt HNE DNA ligand).
For data set [3] the target is unchanged. Nature of the data set: pull-down. The following applies: 5' 32P-labeled DNA, HNE on beads, scintillation counting, 37 C, purified native protein, label: fluorescein, single-stranded DNA, letters built from the parent sequence and the stated change, variant of PARENT (45-nt HNE DNA ligand).
Data set [4] shares this target. Nature of the data set: binding assay. The settings on record: CITED from US 5,472,841; printed as 17 nm; purified native protein; single-stranded DNA.
Setting [5] is: fluorescein at 5' end (n1) [5' fluorescein (n1, left out) attached before T1], label: fluorescein.
The mark [6] stands for this setting: fluorescein as penultimate 3' residue [fluorescein (n46, left out) between T45 and T46], label: fluorescein.
Setting [7] is: two hexaethylene glycol spacers then fluorescein near 3' end [two hexaethylene glycol spacers + fluorescein (n46-n48, left out) between T45 and T46], label: fluorescein.
Setting [8] is: head-to-tail dimer linked by ethylene glycol linkers (L) with two fluoresceins (LFLFL) [LFLFL (ethylene glycol linkers L and two fluoresceins F; n46-n50, left out) between T45 and T46], label: fluorescein x2.

The exact form of at least one protein or probe is not confirmed. Protein sequences can lack the tags named with them.

A word on the Kd: it is the constant that tells how readily two partners part at equilibrium. “TAGCGATACTGCGTGGGTTGGGGCGGGTAGGGCCAGCAGTCTCGT [DNA-5F]”: the Kd was determined as 154 nM in data set [1] (setting [5]) and 13 nM in data set [2] (setting [5]).
Regarding “TAGCGATACTGCGTGGGTTGGGGCGGGTAGGGCCAGCAGTCTCGTT [DNA-3F]”, the Kd in data set [1] (setting [6]) was 120 nM; in data set [2] (setting [6]), 6.6 nM; in data set [3] (fluorescein as penultimate 3' residue [fluorescein (n46, left out) between T45 and T46]), 140 nM.
“TAGCGATACTGCGTGGGTTGGGGCGGGTAGGGCCAGCAGTCTCGTT [DNA-LNK-3F]”: the dissociation constant Kd in data set [1] (setting [7]) was found to be 90 nM; in data set [2] (setting [7]) it was 17.5 nM; in data set [3] (two hexaethylene glycol spacers then fluorescein near 3' end [two hexaethylene glycol spacers + fluorescein (n46-n48, left out) between T45 and T46]) it was 300 nM.
Regarding “TAGCGATACTGCGTGGGTTGGGGCGGGTAGGGCCAGCAGTCTCGTT [PARENT (45-nt HNE DNA ligand)]”, the Kd in data set [4] is 17 nM.
Take “TAGCGATACTGCGTGGGTTGGGGCGGGTAGGGCCAGCAGTCTCGTTAGCGATACTGCGTGGGTTGGGGCGGGTAGGGCCAGCAGTCTCGT [DNA-DIMER-HT]”: the Kd turned out to be 15 nM in data set [1] (setting [8]) and 0.5 nM in data set [2] (setting [8]).
